Reference: the supplement of paper PMC12819154, “High-throughput peptide-centric local stability assay extends protein–ligand identification to membrane proteins, tissues and bacteria” (Nature Structural & Molecular Biology, 2025)
The list shows a part of the results. Small differences around the control level are noise.

Sequences of proteins named here, by UniProt entry; tags and fusion partners are left off. A change or cut given only in a name is not applied to a line headed by its entry.
UniProt Q15390: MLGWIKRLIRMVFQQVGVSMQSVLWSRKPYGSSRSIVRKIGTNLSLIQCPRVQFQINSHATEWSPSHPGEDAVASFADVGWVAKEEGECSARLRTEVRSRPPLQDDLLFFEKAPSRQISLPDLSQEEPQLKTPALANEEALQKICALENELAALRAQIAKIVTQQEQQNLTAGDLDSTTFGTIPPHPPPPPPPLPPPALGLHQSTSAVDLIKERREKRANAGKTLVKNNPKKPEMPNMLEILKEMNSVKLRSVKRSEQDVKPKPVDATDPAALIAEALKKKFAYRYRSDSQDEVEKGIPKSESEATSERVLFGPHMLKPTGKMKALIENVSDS
UniProt Q16621: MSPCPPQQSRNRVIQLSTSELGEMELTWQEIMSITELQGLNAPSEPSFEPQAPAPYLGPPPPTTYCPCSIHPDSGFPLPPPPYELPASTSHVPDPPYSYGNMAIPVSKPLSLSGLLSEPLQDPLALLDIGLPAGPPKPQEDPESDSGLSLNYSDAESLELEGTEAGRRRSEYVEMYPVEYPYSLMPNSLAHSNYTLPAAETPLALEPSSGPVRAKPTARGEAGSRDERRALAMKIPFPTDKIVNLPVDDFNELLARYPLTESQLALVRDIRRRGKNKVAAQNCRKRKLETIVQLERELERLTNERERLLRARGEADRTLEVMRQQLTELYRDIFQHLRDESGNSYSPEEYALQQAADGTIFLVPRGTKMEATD
UniProt Q15438: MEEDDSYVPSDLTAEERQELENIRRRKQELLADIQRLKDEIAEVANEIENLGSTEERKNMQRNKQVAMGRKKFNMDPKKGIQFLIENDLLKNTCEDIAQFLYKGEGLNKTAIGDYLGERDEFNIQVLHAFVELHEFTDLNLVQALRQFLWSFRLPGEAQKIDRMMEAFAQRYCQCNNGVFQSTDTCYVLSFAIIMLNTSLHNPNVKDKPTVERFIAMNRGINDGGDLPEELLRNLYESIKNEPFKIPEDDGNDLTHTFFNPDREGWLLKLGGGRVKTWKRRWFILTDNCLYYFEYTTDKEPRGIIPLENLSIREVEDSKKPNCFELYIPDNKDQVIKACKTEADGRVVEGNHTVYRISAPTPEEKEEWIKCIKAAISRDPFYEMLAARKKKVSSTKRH
UniProt Q15669: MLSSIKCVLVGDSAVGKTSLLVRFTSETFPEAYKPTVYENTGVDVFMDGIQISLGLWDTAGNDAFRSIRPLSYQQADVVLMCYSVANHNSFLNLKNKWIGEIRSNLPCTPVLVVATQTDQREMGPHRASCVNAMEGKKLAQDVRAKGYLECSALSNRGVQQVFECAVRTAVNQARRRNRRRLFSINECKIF
UniProt Q15596: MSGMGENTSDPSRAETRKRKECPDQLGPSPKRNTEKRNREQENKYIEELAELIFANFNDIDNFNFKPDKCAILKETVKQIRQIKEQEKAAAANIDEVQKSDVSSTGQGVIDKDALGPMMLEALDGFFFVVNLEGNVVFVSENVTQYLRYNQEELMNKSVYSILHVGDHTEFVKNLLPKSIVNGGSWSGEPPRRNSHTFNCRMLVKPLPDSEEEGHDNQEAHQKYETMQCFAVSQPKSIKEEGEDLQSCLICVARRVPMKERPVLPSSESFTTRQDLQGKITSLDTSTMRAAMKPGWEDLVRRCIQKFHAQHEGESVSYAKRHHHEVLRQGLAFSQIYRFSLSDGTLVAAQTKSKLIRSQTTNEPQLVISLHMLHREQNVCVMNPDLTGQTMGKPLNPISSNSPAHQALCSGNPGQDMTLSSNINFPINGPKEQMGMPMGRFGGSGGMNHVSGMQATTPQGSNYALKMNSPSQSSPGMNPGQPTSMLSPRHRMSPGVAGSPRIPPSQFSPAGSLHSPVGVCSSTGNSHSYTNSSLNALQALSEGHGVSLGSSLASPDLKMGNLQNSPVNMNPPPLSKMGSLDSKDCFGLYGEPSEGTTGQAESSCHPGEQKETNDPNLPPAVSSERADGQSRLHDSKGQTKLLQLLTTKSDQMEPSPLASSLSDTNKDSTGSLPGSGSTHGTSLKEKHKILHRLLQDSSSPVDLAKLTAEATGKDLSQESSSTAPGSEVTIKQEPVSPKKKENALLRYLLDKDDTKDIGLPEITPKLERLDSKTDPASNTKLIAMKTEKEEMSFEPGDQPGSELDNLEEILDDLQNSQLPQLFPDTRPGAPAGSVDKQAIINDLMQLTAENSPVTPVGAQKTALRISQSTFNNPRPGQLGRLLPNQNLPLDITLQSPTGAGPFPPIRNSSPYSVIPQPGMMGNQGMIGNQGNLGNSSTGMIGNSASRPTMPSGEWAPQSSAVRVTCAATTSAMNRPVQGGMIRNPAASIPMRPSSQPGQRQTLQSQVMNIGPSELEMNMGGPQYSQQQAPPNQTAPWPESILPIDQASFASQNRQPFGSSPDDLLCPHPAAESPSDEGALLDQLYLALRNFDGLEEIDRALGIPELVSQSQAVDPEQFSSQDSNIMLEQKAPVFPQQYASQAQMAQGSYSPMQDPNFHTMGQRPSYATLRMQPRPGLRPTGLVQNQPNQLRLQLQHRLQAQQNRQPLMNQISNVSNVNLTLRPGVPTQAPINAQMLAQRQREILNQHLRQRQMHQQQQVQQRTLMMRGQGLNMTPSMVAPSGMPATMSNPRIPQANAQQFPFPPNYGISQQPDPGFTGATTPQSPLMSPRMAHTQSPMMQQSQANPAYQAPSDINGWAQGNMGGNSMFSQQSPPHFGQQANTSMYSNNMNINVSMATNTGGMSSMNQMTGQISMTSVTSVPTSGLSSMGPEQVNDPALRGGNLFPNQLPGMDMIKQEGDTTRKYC
UniProt Q15269: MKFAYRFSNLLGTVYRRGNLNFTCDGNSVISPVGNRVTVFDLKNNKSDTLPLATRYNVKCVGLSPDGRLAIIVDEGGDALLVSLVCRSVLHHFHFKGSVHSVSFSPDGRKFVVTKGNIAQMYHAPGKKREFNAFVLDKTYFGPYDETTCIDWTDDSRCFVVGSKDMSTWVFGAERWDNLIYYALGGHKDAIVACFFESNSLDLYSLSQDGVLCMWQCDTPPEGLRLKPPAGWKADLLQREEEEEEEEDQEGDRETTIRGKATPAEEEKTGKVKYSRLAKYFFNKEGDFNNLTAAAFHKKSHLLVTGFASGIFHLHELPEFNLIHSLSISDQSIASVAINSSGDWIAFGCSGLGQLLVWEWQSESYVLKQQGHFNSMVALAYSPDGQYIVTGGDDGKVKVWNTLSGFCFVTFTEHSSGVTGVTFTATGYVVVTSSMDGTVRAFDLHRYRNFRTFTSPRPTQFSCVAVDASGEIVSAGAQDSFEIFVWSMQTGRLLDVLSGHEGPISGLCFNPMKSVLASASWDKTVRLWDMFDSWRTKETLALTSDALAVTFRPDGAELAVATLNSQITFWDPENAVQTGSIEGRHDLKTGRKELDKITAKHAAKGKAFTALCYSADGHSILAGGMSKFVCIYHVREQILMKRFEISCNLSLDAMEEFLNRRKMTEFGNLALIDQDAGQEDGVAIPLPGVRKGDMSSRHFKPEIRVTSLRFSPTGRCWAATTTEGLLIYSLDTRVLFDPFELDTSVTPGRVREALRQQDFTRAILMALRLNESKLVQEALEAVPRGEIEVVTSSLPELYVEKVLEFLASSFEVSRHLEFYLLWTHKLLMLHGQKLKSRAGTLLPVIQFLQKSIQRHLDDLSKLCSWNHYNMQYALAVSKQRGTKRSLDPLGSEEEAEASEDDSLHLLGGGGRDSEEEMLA
UniProt Q15645: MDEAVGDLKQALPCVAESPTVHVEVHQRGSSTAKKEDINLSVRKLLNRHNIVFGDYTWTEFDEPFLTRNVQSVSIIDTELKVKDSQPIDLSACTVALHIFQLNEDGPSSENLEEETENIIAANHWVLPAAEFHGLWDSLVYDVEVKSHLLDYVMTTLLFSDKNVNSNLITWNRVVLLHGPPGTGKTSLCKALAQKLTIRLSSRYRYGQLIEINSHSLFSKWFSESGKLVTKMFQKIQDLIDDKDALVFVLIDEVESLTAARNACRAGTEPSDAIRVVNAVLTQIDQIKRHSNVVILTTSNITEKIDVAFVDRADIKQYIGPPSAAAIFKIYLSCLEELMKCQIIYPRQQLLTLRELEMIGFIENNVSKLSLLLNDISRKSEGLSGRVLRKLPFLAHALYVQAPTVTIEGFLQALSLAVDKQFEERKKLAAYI
UniProt Q32P41: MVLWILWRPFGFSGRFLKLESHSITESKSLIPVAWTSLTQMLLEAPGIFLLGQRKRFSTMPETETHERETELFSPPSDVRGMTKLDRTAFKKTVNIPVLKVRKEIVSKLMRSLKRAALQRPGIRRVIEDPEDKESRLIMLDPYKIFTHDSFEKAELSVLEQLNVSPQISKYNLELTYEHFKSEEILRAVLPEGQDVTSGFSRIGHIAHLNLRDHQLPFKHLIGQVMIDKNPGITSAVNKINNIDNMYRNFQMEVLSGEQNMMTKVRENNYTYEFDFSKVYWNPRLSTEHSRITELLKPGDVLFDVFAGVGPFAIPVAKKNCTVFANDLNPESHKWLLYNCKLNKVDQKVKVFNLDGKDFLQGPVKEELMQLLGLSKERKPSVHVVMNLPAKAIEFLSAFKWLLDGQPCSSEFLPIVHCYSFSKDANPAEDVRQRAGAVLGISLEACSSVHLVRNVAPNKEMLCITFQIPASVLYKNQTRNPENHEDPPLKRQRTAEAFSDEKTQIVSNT

These targets were tested with Cc1nc(Nc2ncc(C(=O)Nc3c(C)cccc3Cl)s2)cc(N2CCN(CCO)CC2)n1 [dasatinib] (assay: log2 fold change of tryptic peptide abundance, ligand vs vehicle (limited proteolysis) (log2 ratio); higher = more trypsin-susceptible (destabilized)). Conditions: ligand concentration: 5 uM; sample: K562 cleared lysate.
Target “UniProt Q15149 (peptide sequence: LSVYQAMK, peptide start residue: 4084)” has a log2 fold change of 0.706. For “MTFR1 (peptide sequence: VLFGPHMLKPTGK, peptide start residue: 310) (UniProt Q15390)”, the log2 fold change was 0.189. Target “NFE2 (peptide sequence: RKLETIVQLER, peptide start residue: 286) (UniProt Q16621)” has a log2 fold change of -0.273. “CYTH1 (peptide sequence: QELLADIQR, peptide start residue: 28) (UniProt Q15438)” was tested, and the log2 fold change was -0.0915. “UniProt Q15669 (peptide sequence: GVQQVFECAVR, peptide start residue: 158)” showed a log2 fold change of -0.0717. “NCOA2 (peptide sequence: AAMKPGWEDLVR, peptide start residue: 290) (UniProt Q15596)” was tested, and the log2 fold change was 0.585. Work on “PWP2 (peptide sequence: HLEFYLLWTHK, peptide start residue: 815) (UniProt Q15269)” yielded a log2 fold change of 0.233. “MRPL23 (peptide sequence: RGGVPSWFGL, peptide start residue: 144) (UniProt Q16540)” was tested, and the log2 fold change was -0.586. With “TRIP13 (peptide sequence: HSNVVILTTSNITEKIDVAFVDR, peptide start residue: 290) (UniProt Q15645)” the log2 fold change was -0.582. “TRMT5 (peptide sequence: HLIGQVMIDKNPGITSAVNK, peptide start residue: 220) (UniProt Q32P41)” gave a log2 fold change of 0.172.
